{
  "source": "patent US7247627B2",
  "about": "“Salts and polymorphs of a pyrrole-substituted indolinone compound” (Pharmacia & Upjohn Company, priority 2003, dated 2007)",
  "experiment": "Six-week stability study, HPLC chemical and enantiomeric stability, PXRD (Example 4)",
  "format": "physicochemical",
  "details": "6 weeks, closed vial",
  "method": "A six-week stability study was carried out on samples of 5-[(Z)-(5-fluoro-2-oxo-1,2-dihydro-3H-indol-3-ylidene)methyl]-N-[(2S)-2-hydroxy-3-morpholin-4-ylpropyl]-2,4-dimethyl-1H-pyrrole-3-carboxamide maleate salt, polymorph Form 1. The compound was exposed for 6 weeks, closed vial, at three stability test conditions: 5° C., 25° C./60% relative humidity and 40° C./75% relative humidity, and analyzed for chemical and enantiomeric stability as described in Example 2, except that the HPLC instrument was an Agilent 1100 series.\nThe percent recovery was calculated based on the average response factor obtained from a reference standard throughout the HPLC run, and considering the E isomer as the compound and not as an impurity. […] The isomerization is often an artifact of sample preparation and analysis. […] The values shown in the table are averages of several injections.",
  "note": "At least one read-out could not be matched to a standard name with certainty.",
  "data": [
    {"smiles": "Cc1[nH]c(/C=C2\\C(=O)Nc3ccc(F)cc32)c(C)c1C(=O)NC[C@H](O)CN1CCOCC1", "note": "[Form 1, 5-[(Z)-(5-fluoro-2-oxo-1,2-dihydro-3H-indol-3-ylidene)methyl]-N-[(2S)-2-hydroxy-3-morpholin-4-ylpropyl]-2,4-dimethyl-1H-pyrrole-3-carboxamide]", "values": [
      {"measurement": "Recovery (%)", "setting": "5° C. ± 3° C.", "value": 98.00, "unit": "%"},
      {"measurement": "Recovery (%)", "setting": "25° C. ± 2° C., 60% RH", "value": 97.52, "unit": "%"},
      {"measurement": "Recovery (%)", "setting": "40° C. ± 2° C.C, 76% RH", "value": 97.63, "unit": "%"}
    ]}
  ]
}
